Test results taken from paper PMC10503009.
These are yes or no findings as the source states them, for the method shown. Binding seen in cells or lysates may run through a third protein. Some results given as binding are weak or reduced against the parent protein; the word gives no strength.

By UniProt entry, the sequences of proteins in these tests, tags left out.
UniProt Q9UJA3: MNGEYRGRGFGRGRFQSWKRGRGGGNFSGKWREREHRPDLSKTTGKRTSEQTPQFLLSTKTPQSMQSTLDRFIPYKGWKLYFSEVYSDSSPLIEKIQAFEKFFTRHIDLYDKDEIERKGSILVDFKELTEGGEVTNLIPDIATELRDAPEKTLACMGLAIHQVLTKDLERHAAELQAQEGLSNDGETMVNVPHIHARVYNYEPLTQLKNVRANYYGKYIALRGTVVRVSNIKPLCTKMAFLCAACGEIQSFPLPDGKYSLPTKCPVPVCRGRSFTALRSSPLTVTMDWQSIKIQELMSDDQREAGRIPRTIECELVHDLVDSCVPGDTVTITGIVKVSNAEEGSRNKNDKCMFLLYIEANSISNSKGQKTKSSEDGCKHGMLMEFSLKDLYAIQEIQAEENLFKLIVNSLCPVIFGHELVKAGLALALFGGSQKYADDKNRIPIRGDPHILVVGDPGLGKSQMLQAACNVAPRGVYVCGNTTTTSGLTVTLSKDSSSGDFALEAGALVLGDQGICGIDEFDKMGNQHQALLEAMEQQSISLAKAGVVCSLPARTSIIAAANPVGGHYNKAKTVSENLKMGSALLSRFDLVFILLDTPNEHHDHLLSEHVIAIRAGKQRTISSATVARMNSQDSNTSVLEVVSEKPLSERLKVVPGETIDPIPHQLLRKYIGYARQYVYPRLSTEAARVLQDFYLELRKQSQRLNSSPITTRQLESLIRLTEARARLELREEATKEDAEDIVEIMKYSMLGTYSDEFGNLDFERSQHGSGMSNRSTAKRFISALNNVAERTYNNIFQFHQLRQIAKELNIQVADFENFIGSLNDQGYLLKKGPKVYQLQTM
UniProt P46934: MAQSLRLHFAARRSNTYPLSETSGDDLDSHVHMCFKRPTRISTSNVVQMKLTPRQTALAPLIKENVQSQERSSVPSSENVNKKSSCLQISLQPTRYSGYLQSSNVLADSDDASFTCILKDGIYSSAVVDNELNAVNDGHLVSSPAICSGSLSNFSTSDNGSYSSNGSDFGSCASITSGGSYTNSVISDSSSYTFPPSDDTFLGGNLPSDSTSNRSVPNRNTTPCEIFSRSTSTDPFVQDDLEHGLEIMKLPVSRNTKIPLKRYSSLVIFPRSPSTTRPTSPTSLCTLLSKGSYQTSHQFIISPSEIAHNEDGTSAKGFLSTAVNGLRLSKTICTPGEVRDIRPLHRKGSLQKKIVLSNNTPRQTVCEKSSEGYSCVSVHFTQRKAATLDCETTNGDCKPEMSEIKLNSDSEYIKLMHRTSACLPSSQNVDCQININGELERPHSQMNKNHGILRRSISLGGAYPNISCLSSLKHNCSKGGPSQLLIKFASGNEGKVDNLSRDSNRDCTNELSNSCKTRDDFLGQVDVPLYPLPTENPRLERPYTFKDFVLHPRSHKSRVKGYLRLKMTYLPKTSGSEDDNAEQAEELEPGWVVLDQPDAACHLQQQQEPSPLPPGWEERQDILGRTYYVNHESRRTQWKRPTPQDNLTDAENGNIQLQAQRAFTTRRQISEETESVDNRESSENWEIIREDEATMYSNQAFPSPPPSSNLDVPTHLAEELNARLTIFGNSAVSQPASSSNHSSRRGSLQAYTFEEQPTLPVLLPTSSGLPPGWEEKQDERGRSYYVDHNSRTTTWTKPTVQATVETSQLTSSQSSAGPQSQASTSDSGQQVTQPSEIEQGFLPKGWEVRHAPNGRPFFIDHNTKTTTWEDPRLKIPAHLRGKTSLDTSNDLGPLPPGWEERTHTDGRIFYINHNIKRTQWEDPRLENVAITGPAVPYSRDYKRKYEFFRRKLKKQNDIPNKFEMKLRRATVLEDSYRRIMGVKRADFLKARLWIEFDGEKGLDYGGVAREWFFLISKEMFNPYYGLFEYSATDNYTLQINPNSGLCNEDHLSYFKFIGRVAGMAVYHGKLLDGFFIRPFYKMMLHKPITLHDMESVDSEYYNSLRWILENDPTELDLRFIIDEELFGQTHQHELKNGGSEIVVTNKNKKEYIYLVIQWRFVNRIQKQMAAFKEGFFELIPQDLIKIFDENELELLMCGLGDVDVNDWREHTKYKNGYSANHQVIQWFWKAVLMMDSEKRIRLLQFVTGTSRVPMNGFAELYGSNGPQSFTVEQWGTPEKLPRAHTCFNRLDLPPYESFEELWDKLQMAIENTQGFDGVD

Molecular target: MCM8 (human (endogenous in human colorectal cancer cell lines)) (UniProt Q9UJA3)
Test: co-IP; cell lysates immunoprecipitated with anti-MCM8 antibody, normal mouse IgG as control; western blot with anti-MCM8 and anti-NEDD4 antibodies

- binding: binds
Substance: NEDD4 (from UniProt P46934 1-1319)
